Reference: patent publication EP1908513A1, “Method for preparing and using chemical collections” (priority 2006, dated 2008)
At least one compound was matched to its structure with a doubt left.

Test: Recovery after freeze-drying and reconstitution with water from various aqueous PEG media, by HPLC (Example 2)
Format: physicochemical

For `C[C@]12CC[C@@H]3c4ccc(O)cc4CC[C@H]3[C@@H]1CC[C@@H]2O` [Compound 7, Estradiol], the “Average Recovery %” value (20% PEG-400 + 10% PEG-8000, expected 200 µM) was 96.0%, the “Average Recovery %” value (30% PEG-8000, expected 200 µM) was 101.0% and the “Average Recovery %” value (30% PEG-20000, expected 200 µM) was 96.8%.
